Test [1] concerns the target CBL (47-357), co-expressed from MCS2 of pETDuet-1 (UniProt P22681). Nature of the test: SEC. In general terms: Size exclusion chromatography separates by hydrodynamic size, large species first.
In test [2] the target is CBL tyrosine kinase binding domain (TKBD), residues 25-357 (UniProt P22681). The experiment in a line: ITC.

By UniProt entry, the sequences of proteins in these tests, tags left out. Residues count along the entry.
UniProt P22681, 25-357: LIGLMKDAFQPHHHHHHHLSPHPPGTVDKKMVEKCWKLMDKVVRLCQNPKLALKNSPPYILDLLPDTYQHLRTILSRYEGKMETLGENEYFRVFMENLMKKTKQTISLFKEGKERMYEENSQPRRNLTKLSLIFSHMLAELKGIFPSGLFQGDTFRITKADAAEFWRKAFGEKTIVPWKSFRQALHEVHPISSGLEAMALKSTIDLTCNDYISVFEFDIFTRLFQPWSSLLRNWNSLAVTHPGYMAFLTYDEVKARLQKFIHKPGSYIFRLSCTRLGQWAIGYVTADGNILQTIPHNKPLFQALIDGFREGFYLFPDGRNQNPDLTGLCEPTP
UniProt P22681, 47-357: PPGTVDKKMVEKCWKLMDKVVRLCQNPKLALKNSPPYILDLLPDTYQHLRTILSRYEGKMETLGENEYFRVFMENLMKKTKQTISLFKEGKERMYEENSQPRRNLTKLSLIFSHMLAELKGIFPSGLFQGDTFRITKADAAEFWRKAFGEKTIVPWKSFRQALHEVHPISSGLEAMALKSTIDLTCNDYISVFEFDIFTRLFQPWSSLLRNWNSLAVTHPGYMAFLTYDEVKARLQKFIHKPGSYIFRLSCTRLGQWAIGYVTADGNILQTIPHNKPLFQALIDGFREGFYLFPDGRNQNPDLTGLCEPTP

No constants are given. Whether binding was seen depends on the method and setting. Some binding calls cover weakened binding; strength is not graded here. For part of these data: Tags and fused reporters may be left off the sequences shown.

B1: human SLAP2 residues 29-261, Trx-His tag removed by thrombin (domain or fragment, UniProt Q9H6Q3 29-261)
chain: EAERSKATAVALGSFPAGGPAELSLRLGEPLTIVSEDGDWWTVLSEVSGREYNIPSVHVAKVSHGWLYEGLSREKAEELLLLPGNPGGAFLIRESQTRRGSYSLSVRLSRPASWDRIRHYRIHCLDNGWLYISPRLTFPSLQALVDHYSELADDICCLLKEPCVLQRAGPLPGKDIPLPVTVQRTPLNWKELDSSLLFSEAATGEESLLSEGLRESLSFYISLNDEAVSLDDA
As to B1, the binding result in test [1] is recorded as “binds”.

B2: phosphorylated kinase activation loop peptide of Lyn kinase (VIEDNEpYTAR) (peptide)
peptide: VIEDNEYTAR
modifications: phosphotyrosine at position 7 of the peptide (pY)
For B2, the binding entry in test [2] is “binds”.

B3: phosphorylated Zap70 kinase peptide (TLNSDGpYTPEPA) (peptide)
peptide: TLNSDGYTPEPA
modifications: phosphotyrosine at position 7 of the peptide (pY)
Take B3: the binding result in test [2] is reported as “binds”.

(Values after article doi:10.1101/2020.10.08.331397.)
